# At least one compound was matched to its structure with a doubt left. Some results were stated once for a whole list of compounds, not compound by compound.
# Columns and labels:
# [1] = salt hydration study in methanol/water of known water activity; format: physicochemical
# Description: Approximately 20 mg of the hydrochloride (HCl), besylate and fumarate salts were weighed into 3×2 mL push cap vials. 0.05-0.1 mL of relevant solvent system was added to each vial, at 25° C.
# Methanol/water solvent systems (99:1, 75:25, 33:67) of known water activity (aw 0.2, 0.5 and 0.8 respectively) were used. The experiment was stirred for ca. 24 h. After 24 h, any slurries were centrifuged, and the solids analysed by XRPD.
# An additional hydration study was required in order to repeat the salt hydration studies, for the HCl salt and the besylate salt due to dissolution in the first set of experiments:
# For each salt, approximately 10 mg was weighed into 4×2 mL vials and a stirrer bar added. 10 μL of each solvent system was added, at 25° C. The experiments were stirred for 24 h, and any solids recovered were then analysed by XRPD.
# [2] = format: physicochemical; conditions: across all pH ranges (1.2, 4.5, 6.8), with respect to mesembrine
# Description: Approximately 20 mg of each salt was weighed into 3×2 mL push cap vials. 0.1 mL of buffer (Chloride pH 1.2; Acetate pH 4.5; Phosphate pH 6.8) was added to each vial, at 25° C. The experiment was stirred for ca. 24 h. After 2 h, the pH was measured and adjusted if required. After 24 h a final pH measurement was taken. Any slurries were centrifuged and the solids analysed by XRPD.
Compound,"XRPD of isolated solids ([1]; 200 mg/mL, water activity aw 0.8)","XRPD of isolated solids ([1]; 400 mg/mL, water activity aw 0.2)","XRPD of isolated solids ([1]; 400 mg/mL, water activity aw 0.5)","XRPD of isolated solids ([1]; 1000 mg/mL, water activity aw 0.5)","XRPD of isolated solids ([1]; 1000 mg/mL, water activity aw 0.8)",solubility [2] [mg/mL]
"COc1ccc(C23CCC(=O)CC2N(C)CC3)cc1OC.O=C(O)C=CC(=O)O (stereo not drawn) [Fumarate Pattern 1 + 4, mesembrine fumarate]","4, C","4, C","4, C",–,–,–
"COc1ccc(C23CCC(=O)CC2N(C)CC3)cc1OC.Cl (stereo not drawn) [Hydrochloride Pattern 1, reference compound]",–,–,–,"1, C","1, C",> 96.75

# From patent US12595231B2 (priority 2022, dated 2026)
